No constants are given. Whether binding was seen depends on the method and setting. Binding seen in cells or lysates may run through a third protein. Some entries that bind do so weakly or less than the wild type.
Tests used:
[1] = molecular target: Robo2, endogenous, of newborn mouse kidney (mouse) (UniProt Q7TPD3); experiment: co-immunoprecipitation with mouse anti-nephrin antibody from mouse kidney lysate, Western blot; complex
[2] = molecular target: Robo2, endogenous, of newborn mouse kidney (mouse) (UniProt Q7TPD3); experiment: co-immunoprecipitation with anti-nephrin antibody from newborn mouse kidney lysate; complex through Nck
[3] = molecular target: Robo2, endogenous, of newborn mouse kidney (mouse) (UniProt Q7TPD3); experiment: co-immunoprecipitation with anti-nephrin antibody from kidneys of Robo2 +/+, +/- and -/- mice, Western blot; complex

Sequences of proteins named here, by UniProt entry; tags and fusion partners are left off. Residues count along the entry.
UniProt Q7TPD3, residues 22-1470: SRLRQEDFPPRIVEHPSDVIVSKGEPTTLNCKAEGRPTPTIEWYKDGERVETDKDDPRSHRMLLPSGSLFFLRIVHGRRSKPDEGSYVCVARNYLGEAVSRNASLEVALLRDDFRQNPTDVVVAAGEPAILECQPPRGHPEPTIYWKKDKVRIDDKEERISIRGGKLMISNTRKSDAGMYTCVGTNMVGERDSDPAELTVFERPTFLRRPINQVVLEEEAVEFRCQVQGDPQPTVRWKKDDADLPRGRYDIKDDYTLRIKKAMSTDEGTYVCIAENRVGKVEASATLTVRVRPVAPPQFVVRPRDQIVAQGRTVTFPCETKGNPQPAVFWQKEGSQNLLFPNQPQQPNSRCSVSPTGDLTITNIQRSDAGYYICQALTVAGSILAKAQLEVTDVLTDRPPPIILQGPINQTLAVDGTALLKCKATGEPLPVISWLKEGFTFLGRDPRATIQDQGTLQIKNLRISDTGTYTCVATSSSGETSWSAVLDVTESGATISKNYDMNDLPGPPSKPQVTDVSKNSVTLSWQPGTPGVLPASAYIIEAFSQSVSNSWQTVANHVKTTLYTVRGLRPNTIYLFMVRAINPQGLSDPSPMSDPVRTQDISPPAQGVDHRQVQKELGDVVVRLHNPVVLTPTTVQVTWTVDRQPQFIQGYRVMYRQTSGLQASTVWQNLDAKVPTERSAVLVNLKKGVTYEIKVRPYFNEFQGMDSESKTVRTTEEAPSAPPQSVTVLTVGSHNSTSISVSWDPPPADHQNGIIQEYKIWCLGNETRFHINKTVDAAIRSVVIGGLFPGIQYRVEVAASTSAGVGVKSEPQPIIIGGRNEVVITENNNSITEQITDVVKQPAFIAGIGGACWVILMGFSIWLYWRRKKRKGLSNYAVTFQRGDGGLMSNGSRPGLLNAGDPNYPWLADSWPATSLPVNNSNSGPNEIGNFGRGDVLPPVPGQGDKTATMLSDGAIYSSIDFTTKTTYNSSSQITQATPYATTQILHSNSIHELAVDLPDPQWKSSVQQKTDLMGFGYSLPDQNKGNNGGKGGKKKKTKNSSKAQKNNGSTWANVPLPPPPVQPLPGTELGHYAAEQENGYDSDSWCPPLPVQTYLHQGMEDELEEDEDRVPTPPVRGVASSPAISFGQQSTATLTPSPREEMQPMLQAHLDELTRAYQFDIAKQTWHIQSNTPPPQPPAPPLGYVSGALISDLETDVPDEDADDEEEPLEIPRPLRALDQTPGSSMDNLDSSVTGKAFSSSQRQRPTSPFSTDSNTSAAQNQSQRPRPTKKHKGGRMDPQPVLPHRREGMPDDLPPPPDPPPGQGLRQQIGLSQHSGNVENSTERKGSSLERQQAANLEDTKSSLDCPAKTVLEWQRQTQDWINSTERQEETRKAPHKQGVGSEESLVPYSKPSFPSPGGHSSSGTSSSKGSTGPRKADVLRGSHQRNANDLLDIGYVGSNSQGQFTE

binding [1]: binds
binding [2]: binds
binding [3]: binds
B1: nephrin, endogenous, of mouse kidney (receptor, UniProt Q9QZS7 37-1256, looked up)
chain: QSPVPTSAPRGFWALSENLTVVEGSTVKLWCGVRAPGSVVQWAKDGLLLGPNPKIPGFPRYSLEGDSAKGEFHLLIEACDLSDDAEYECQVGRSELGPELVSPSVILSILVSPKVLQLTPEAGSTVTWVAGQEYVVTCVSGDAKPAPDIIFIQGGRTVEDVSSSVNEGSEEKLFFTEAEARVTPQSSDNGQLLVCEGSNPALATPIKASFTMNILFPPGPPVIDWPGLNEGHVRAGENLELPCIARGGNPPATLQWLKNGKPVSIAWGTEHAQAVAHSVLVMTVRPEDHGARLSCQSYNSVSAETQERSITLQVTFPPSAVTILGSTSQSENKNVTLCCLTKSSRPRVLLRWWLGGRQLLPTDETVMDGLHGGHISMSNLTLLVKREDNGLSLTCEAFSDAFSKETFKKSLTLNVKYPAQKLWIEGPPEGQSIRTGTRVRLVCLAIGGNPEPSLTWLKDSRPVNDPRQSQEPRRVQLGSVEKSGSTFSRELVLIIGPPDNLAKFSCKAGQLSASTQLVVQFPPTNLTILANSSALRPGDALNLTCVSISSNPPVNLSLDKEGERLDDVAAKPQSAPFKGSAASRSVFLRVSSRDHGHRVTCRAHSEALRETVSSFYRLNVLYPPEFLGEQVRAVTVVEQGQALLPVSVSANPAPEAFNWTFRGYRLSPAGGPRHRILSGGALQLWNVTRADDGFYQLHCQNSEGTAEALLKLDVHYAPTIRALKDPTEVNVGGSVDIVCTVDANPILPEMFSWERLGEDEEELNLDDMEKMSKGSTGRLRIRQAKLSQAGAYQCIVDNGVAPAARGLVRLVVRFAPQVDHPTPLTKVAAAGDSTSSATLHCRARGVPNIDFTWTKNGVPLDLQDPRYTEHKYHQGVVHSSLLTIANVSAAQDYALFKCTATNALGSDHTNIQLVSISRPDPPLGLKVVSVSPHSVGLEWKPGFDGGLPQRFQIRYEALESPGFLYMDVLPAQATTFTLTGLKPSTRYRIWLLASNALGDSGLTDKGIQVSITTPGLDQAPEDTDQPLPTEQPPGPPRLPLLPVLFAVGGLLLLSNASCVGGLLWRRRLRRLAEEISEKTEAGSEEDRIRNEYEESQWTGDRDTRSSTVSTAEVDPHYYSMRDFSPQLPPTLEEVSYRQAFTGIEDEDMAFPGHLYDEVERVYGPPGVWGPLYDEVQMDPYDLRWPEVKYEDPRGIYDQVAADMDAGEPGSLPFELRGHLV

From US20170114412A1
